Among all 52,000 sequences or so, about 210 (0.4%) were called active.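 How the source made its calls: active means gene whose silencing raises cell survival under the drug, median off-target-corrected z-score across its silencing RNAs 2 or more; inactive means the rest.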 This is one part of the list.

A short description of this experiment: Resistance to Poly (ADP-Ribose) Polymerase inhibitor: Gene Identification via Genome-wide siRNA Screen. Conditions: mouse BRCA2 R2336H ES cells, olaparib, CellTiter-Glo viability; stronger effect = higher value. Summed up:
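Mouse BRCA2 R2336H ES cells were reverse-transfected with siRNA (20 nM final), treated at 48 h with 500 nM olaparib, and read by CellTiter-Glo after 72 h. Scores: MAD-based z per siRNA, median per gene, seed off-target correction.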
Take GGUAAAAAGUGCCAUUAGATT against Olfr1188: the z-score is inactive: 0.148. Consider GCAACCGAAAGAUAAAGCCTT against BC005752, for which the z-score was inactive: 0.172. With CCAGGUCGAACUUCUGUGCTT against Slc39a8, the z-score is inactive: -1.22. The same measure for CCAAAGUCUGACACGUUUGTT against Soat2: inactive: 0.0407; for GUACCUGAAGCCAGUGUUGTT against Hrmt1l3: inactive: 1.77; for GCCAAUUGGCCUUUGCUAUTT against Olfr1289: inactive: 0.217. With CCAGGCACUUAAGGAAAUUTT against Bloc1s1 the figure was inactive: -1.23. The same measure for GGCGGGCAUUUAACAGUGUTT against Dnajc2: inactive: -0.219; for GGAAGUAGGACUAGCCAUCTT against Akr1c6: inactive: 1.85; for CCUCCUCAGUAUCCGUAUATT against Cpsf5: inactive: -1.09. For CCACAGAGUUCCUAUACAATT against Pfkl, the z-score is inactive: -0.188. The same measure for GGAGAAUUACGGUGCCAACTT against Ncoa3: inactive: 0.354; for GCAGGUGAUUGUGAUUGAATT against Ddx46: inactive: -1.79. As to GGCUGAAGUUCAAGGAUUGTT against V1rb2, the z-score was inactive: 1.84. The same measure for GGACUUUUCUCUCCACCACTT against BC014805: inactive: 1.03. The same measure for GGAUAAUCAUUCUUGUCACTT against Ptgfr: inactive: -0.205; for GGACUAUAGAUCCUAAGUCTT against Kcnab2: inactive: -1.35; for GCUACAGGAGUCGACUUCATT against Lef1: inactive: -1.71.

GGUACAUAUGUGAUGACCGTT against Cdh4: the z-score is inactive: 0.312. The same measure for GGAGCUUAAGCAGUUCACATT against Traf5: inactive: -0.672; for CCAUGCCGCUUCUUAGUCATT against Oaz1: inactive: 1.14. With CCUGAUUGAUUUUGUUCCCTT against V1rd11 the figure was inactive: 0.832; with CGCAUUAAGGGUUAAAGAATT against Plekhf1, inactive: -0.354; with CCUAUGAUUCAGCAAUACUTT against Col17a1, inactive: 1.91. The same measure for CCCAGUGCAUCGAAAAGCUTT against Kif21a: inactive: -1.97; for GGACUACAGAACAAAAUGUTT against Zfp533: inactive: -1.4; for CGUCUUCCCUGUUUACUUATT against Susd2: inactive: 0.339. Take CCACCAAAGCAGCAGCCAATT against Polr2k: the z-score was inactive: -3.28. For the sequence GGAAAUCACAGAAGGAGAUTT against Fxr2h, the z-score is inactive: -0.645. With GGAGUGAAGAGAAAUGAGATT against Wbscr5 the figure was inactive: 0.139; with GGCGCAAUGUCAAUGUGAATT against Gzmb, inactive: -0.22.

As for GGGUCGAAGGUCAGAACAATT against Ptprh, the z-score was inactive: -1.33. The same measure for GGUUUUCUCAGACUACUCGTT against BC059845: inactive: 0.894; for GCCUACAUUCAACAAACGCTT against Gcnt2: inactive: -0.526; for GGGCAUCAUAGACUGCGUGTT against Slc25a5: inactive: 0.774. The same measure for GCCGUUCAUUUCAACCGUGTT against Wdr5: inactive: -2.74; for “GGCAGUUGUGAACUUUCUCTT against 1200003M09Rik”: inactive: 0.0307; for GGACAGUAAUAUGAUGAGCTT against Lzts1: inactive: 0.651.

For the sequence “GGUAAAACAGGUAUGUCGCTT against 2610204K14Rik”, the z-score was inactive: 0.867. The same measure for “GGAAGUCUCUCGUAUUAUATT against E430025E21Rik”: inactive: 1.28; for GGUUCAGAAGGAAGUUUUGTT against Jmy: inactive: -0.431. With GCUAUUACGGUAAUCGAGCTT against Dnajc7 the figure was inactive: -2.11. As for GUGGCGAUAUCCAGAGAUGTT against V1rc26, the z-score was inactive: -0.61.

Consider GGACAUCCGAGCCAUUCUATT against Spata2, for which the z-score was inactive: -1.02. With GGAUCGACAGCAUCAUUCUTT against AY487415 the figure was inactive: 1.74; with CCCGAGAAACCUGGAGUCUTT against Prss19, inactive: -0.0359. The same measure for GGAAUAUGCAUAUUCAUGATT against Olfr350: inactive: 0.983; for GGCAUCUGGUAACUUUUACTT against Trim59: inactive: 1.34. The same measure for GGAGCAAGCUCAGCUUACCTT against Ube3a: inactive: 0.491; for CCAACCUUGCCCAUUUCCATT against Lsp1: inactive: 1.37. In the case of GGAUGAGUUGUCAUUGAUATT against Nck1, the z-score was inactive: 0.591. The same measure for “CGGAAGGAGAGAAUGACAGTT against 1110008P14Rik”: inactive: -1.34.

GCUGUACCUAGAACACAACTT against Fmod: the z-score was inactive: 0.692. With GCGAGAGAUCCCUCUGAAATT against Pigs the figure was inactive: 0.752; with GGCAUGCUGGAAUCAAACATT against Dppa2, inactive: 1.26; with “GGAAUGGGCAGUAUGAGUUTT against 9530014D17Rik”, inactive: -0.135. “GGUUCGUAAAGUAAAUGAGTT against 9930036E21Rik”: the z-score was inactive: -0.0495.

Take “GGUGAUCAACAAUGGCAAUTT against 3110037K17Rik”: the z-score was inactive: -0.708.

Consider GGGCACCUGACAAAAUUGCTT against Dom3z, for which the z-score is inactive: 0.867. The same measure for GAAGCUGUCCUCAGCUCCATT against Olfr491: inactive: -0.291; for “UCAUAGCAGAGAUUAGAAUTT against 4933413G11Rik”: inactive: -0.0167. With GGUUGAAACUUUUUCUGGUTT against Rps7 the figure was inactive: -2.8; with GGUGAAGAAAGCGGAAAAGTT against Cstf3, inactive: 1.2; with CCUAUCAAACUGACUUCAUTT against Gats, inactive: -0.957. Take GGCUCACUCAUUUGUCAGATT against Soat1: the z-score is inactive: 0.456. With GCCAUUAGCCUGCUACCUGTT against BC021608 the figure was inactive: 0.947; with “GGAGACCAAAUGCUAGACGTT against 2510049I19Rik”, inactive: -0.244. “GGCCAUUAUCAUCAAAGUATT against 5730421E18Rik”: the z-score is inactive: 0.145. With GGAAAUGCCACAGCUGUACTT against Foxn4 the figure was inactive: -2.72; with “GGACCCUGCUUUUUAAAAATT against D230010M03Rik”, inactive: 0.282; with GGAUAGAUUUUAGGUAUUGTT against Htr5b, inactive: -0.468. The same measure for GGACUUCCACCGAAAGUUUTT against Rasd1: inactive: -0.0999. With GGAGACCAGUACCCUCUGATT against Cmklr1 the figure was inactive: -2.16. CGGUCAAGUUUUGAUUCCATT against Prkaa2: the z-score is inactive: -2.

For the sequence GGGAGACGCAAAGCCUUAUTT against Olfr1238, the z-score was inactive: -2.74. With GCCUGCAUUCCAUAACACUTT against Prom1 the figure was inactive: 1.06. With CGGAUGAGGUUUCUUUUAUTT against Phkb the figure was inactive: 0.105; with GGCGGAGAAGGAGAUUUUATT against Cldn10, inactive: 1.42; with GGAGUCUUGCUCUAUAUAATT against Arpc5, inactive: 0.704. As to GGUGGUGUACAACAGAGUUTT against Ust, the z-score is inactive: -0.448.

In the case of GGAACCAACCAGGAGAAAUTT against Ms4a4d, the z-score was inactive: -0.289.

Consider GGCAAUCCUGUCCAACAAGTT against Hydin, for which the z-score was inactive: 0.941. Regarding GCCAUGGUUAUUAAGCUGGTT against Olfr608, the z-score was inactive: -0.319. With GGCUUAAUUACACAUGUUCTT against Il6 the figure was inactive: 1.17; with CAACCCUGUAAGGUUGAUUTT against Oog3, inactive: 0.371. With GCGUUUCACGUACCUUCCUTT against Nfatc1 the figure was inactive: 0.178; with GCACUAGCAAUUUUUCUUUTT against Tram1, inactive: 0.263; with GGACUUCAAAACAGAUCUGTT against H3f3a, inactive: -1.18. With GGCGAACAAUUCCCUCAUUTT against Nos1 the figure was inactive: 1.27; with “GGCAAAUUUAUUUCAGGAATT against 1300019C06Rik”, inactive: 1.42; with GCGUAUAGUUUCGAGAAAUTT against BC004636, inactive: -0.677. As to “GGAGGUGAACAGAUCUCACTT against D3Ertd330e”, the z-score is inactive: -0.602. The same measure for “GGAGUCAUGCUCAUUUUGCTT against A430070M19”: inactive: -0.195. For the sequence GAAAAGAGGAUUCCUUGCATT against Olfr1128, the z-score is inactive: -0.0904. For the sequence GGCAGGAUAUAACCAUCCUTT against AW125441, the z-score was inactive: 0.0809. With GGUUUAUCCAGGAAGUAUATT against Ptch1 the figure was inactive: -0.597; with GGAUGAAAGAAAAGAAACUTT against Hoxd11, inactive: -0.656. With CCAGCAAAUGCAGCACAUCTT against V1rd16 the figure was inactive: -0.828; with “GGCAUCAGUUCCACAACUCTT against 8230402K04Rik”, inactive: 1.28. The same measure for “GGUAGAAAAACAAUACCGGTT against 1200009F10Rik”: inactive: -0.569; for GGCAAGGAUUUUUCUACCUTT against Tslp: inactive: 0.287. Turning to GGCAGCAAGAAAAAGAUUCTT against Sfpi1, the z-score was inactive: -0.596. Regarding UUUUGCACAGACCAGGGAGTT against Aspscr1, the z-score was inactive: 0.361. The same measure for GGACUCCAAGGACAAACUGTT against Wdrx1: inactive: -0.0449; for GGACAGUGUAGUCAAAAAATT against Cx3cr1: inactive: 0.0477.

The record behind these values is PubChem BioAssay AID1347423 (Functional Genomics Laboratory (NCATS/FGL), 2020).
